# Percent effect of library compounds

Amino acid sequences for entries named in this document (tags omitted).
UniProt P9WPC5, whole entry: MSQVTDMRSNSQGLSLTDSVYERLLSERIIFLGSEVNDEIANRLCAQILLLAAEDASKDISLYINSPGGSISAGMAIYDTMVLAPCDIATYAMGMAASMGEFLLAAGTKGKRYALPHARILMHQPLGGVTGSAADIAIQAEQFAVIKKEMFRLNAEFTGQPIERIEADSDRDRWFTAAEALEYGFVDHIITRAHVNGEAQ
UniProt P9WPC3, whole entry partner: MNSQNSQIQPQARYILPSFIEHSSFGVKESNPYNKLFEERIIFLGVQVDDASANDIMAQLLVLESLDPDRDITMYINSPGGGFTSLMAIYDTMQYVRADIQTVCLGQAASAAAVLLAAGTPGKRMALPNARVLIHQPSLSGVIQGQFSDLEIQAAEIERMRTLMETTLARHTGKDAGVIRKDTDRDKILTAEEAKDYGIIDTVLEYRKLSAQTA

From ChEMBL document CHEMBL3988442, “University of Dundee, Small-Polar-MMV Screening Library” (2021).

Values are the deposited “Percent Effect”, in %. The record does not define 0% and 100%; most values in the screen are far below 50% and negative numbers occur (in some assays of this library far below -100). Compounds were drawn at random from those tested, without regard to their results.

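ClpP1P2, Mycobacterium tuberculosis (UniProt P9WPC5 and UniProt P9WPC3). Protease assay of ClpP1P2, read by the AMC dye that it sets free. Compounds at 50 µM. Higher reads as stronger inhibition, judged from the few compounds that gave an IC50. Most other retested compounds had strongly negative values. Size under these conditions: about 69,000 compounds, about 10 of them at 50% or above in at least one test.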

Compound,Percent Effect
CCN(CC1CCOC1)C(=O)NCc1nnc2n1CCCCC2 (configuration not stated),-3.225%
CCS(=O)(=O)NC[C@]12COC[C@H]1CN(Cc1cccnc1OC)C2,-4.65%
COc1cc(C(=O)NCc2ccc3c(c2)CCCN3C)cc(OC)c1Br,0.3615%
COc1ccc(N2CCCN(CC(=O)N3CCNC(=O)C3)CC2)cc1,2.841%
COCCN1CCc2ncnc(-c3ccccc3)c2CC1,-3.1%
COc1ncc(CN2CCC3(CCCN(CC4CCC4)C3)C2)cn1 (configuration not stated),-10.35%
CCCn1cc(-c2cc(C(=O)N(C)C)c3ccc(C)cc3n2)cn1,-10.75%
Cc1cccnc1CCNC(=O)CC1C(=O)NCCN1CCC(C)C (configuration not stated),-0.2963%
Cc1nncn1CCNC(=O)C(C)(C)c1cccc(C(F)(F)F)c1,3.298%
CCOC(C)c1noc(CN2CCN(Cc3cccc(F)c3)CC2)n1 (configuration not stated),-5.885%
O=C(c1cnn(-c2ccccc2F)c1)N1CCN(CCO)CC1,-18.93%
Cc1nc(C)n(CC2CN(Cc3cccnc3)Cc3nccn3C2)n1 (configuration not stated),-1.891%
CCn1cc(CN2CCCN(C(=O)c3cc(C)no3)CC2)cn1,-24.94%
COCCN1CCC(CNc2nccc(-c3cnn(C)c3)n2)CC1,-6.501%
CN(C)[C@@H]1CN(C(=O)c2cc3ccc(F)cc3[nH]2)C[C@H]1O,-26.29%
O=C(CNC(=O)C1CC1)NCC1CCCC1,11.83%
Cc1noc(C2CN(Cc3ccc4c(c3)CCO4)C2)n1,1.595%
CCc1ccc(OCC(O)CN2CCN(CCO)CC2)cc1 (configuration not stated),-24.16%
Cc1cnc(CCNC(=O)NCCc2ccc(O)cc2)s1,-13.74%
CCOc1cccc2c1OCC(C(=O)NC(C)Cn1cccn1)=C2 (configuration not stated),7.775%
CC(C)Oc1ccc2c(NC(=O)CN(C)C)nn(CC(F)(F)F)c2c1,-13.88%
CCN(Cc1ccccc1O)CC1(C)Cc2c(N)nc(N)nc2O1 (configuration not stated),17.95%
CC1c2ncc(COCC3CC3)n2CCN1C(=O)c1ccnn1C (configuration not stated),3.008%
CC(=O)N1N=C(c2cccs2)OC1C(=O)Nc1ccccc1 (configuration not stated),-5.211%
Cn1ccnc1CN1CCN(Cc2noc(C3CC3)n2)CC1,-18.85%
c1csc(N2CCN(Cc3cc4n(n3)CCNC4)CC2)n1,-7.978%
CC(C)O[C@@H]1CC[C@H]2[C@H]1OCCN2C(=O)c1nn(C)c2ccccc12,0.1854%
CC(C)=CCN1CCN(C(=O)c2cc(C(C)C)on2)[C@H]2CS(=O)(=O)C[C@H]21,-5.042%
Cn1cc(Cl)cc1C(=O)N1CCCN(Cc2ccccc2)CC1,-54.47%
CC(=O)NCCC1CCCCN1S(=O)(=O)c1ccc2ccccc2c1 (configuration not stated),-7.693%
OCCOc1ccc(NCc2cccc3cccnc23)cn1,-0.6393%
COCCn1cc(NCc2c[nH]nc2-c2ccc(OC)cc2)cn1,-15%
CC(=O)CSc1nc2c(cnn2CCO)c(=O)[nH]1,17.14%
CCC1CN(CC(=O)N2CCC2)CCN1CCOC (configuration not stated),7.521%
Cc1nc(NC(=O)OC(C)(C)C)sc1C(=O)O,-1.098%
CCC1(c2ccc(NS(=O)(=O)N(C)C)cc2)CCC(=O)NC1=O (configuration not stated),-6.756%
CN(c1ccc(C(=O)NCCN2CCOCC2)c(Cl)c1)S(C)(=O)=O,-19.19%
Cc1ccc(NC(=O)CNc2cccc(C(N)=O)c2C)c(C)c1,9.471%
Cn1ccnc1C(=O)N[C@@H]1CN(Cc2ccoc2)[C@@H]2CCCO[C@@H]21,-6.296%
Cc1ccc(-c2cc(C)nc(C3CCCN3S(C)(=O)=O)n2)cc1 (configuration not stated),10.1%
O=C(c1cccn1-c1ccc2c(c1)OCCO2)N1CCCC1,-2.161%
Cc1cnn(CC2CCCN2C(=O)c2ccc(Cl)cc2F)c1 (configuration not stated),-20.5%
CCn1nc2c(cc1=O)CN(Cc1nc(CCOC)no1)CC2,-4.115%
Cc1nn(C)cc1C(C)Nc1ncc(C(N)=O)cc1Cl (configuration not stated),-0.3792%
Cc1ccc(CN2C[C@@H]3COC[C@]3(COc3ccc(C#N)cn3)C2)o1,-9.913%
O=C(NCc1cc2n(n1)CCCNC2)c1cn2cc(Cl)ccc2n1,-5.899%
O=S(=O)(NCCN1CCOCC1)c1cncc(Cl)c1,-1.257%
O=C(CCc1ccccc1)NCC1CCN(Cc2cccs2)CC1,-0.8478%
COCC[C@]1(O)CCN(Cc2nc(C(C)C)cs2)C[C@H]1C,-2.816%
CCN(C(=O)CCc1ccc2c(c1)OCO2)C1CC(=O)NC1=O (configuration not stated),1.791%
CS(=O)(=O)N1CCCC1c1ccnc2nccn12 (configuration not stated),-14.89%
CNc1ncc2c(n1)CN(CCc1ccc(C)cc1)C2=O,-4.571%
Cc1ccc(C(=O)N2CCC3(CCN(c4ccsc4)C3=O)C2)cn1 (configuration not stated),-7.274%
Cc1nonc1C1CCCN1CCC(=O)N1CCc2ccccc2C1 (configuration not stated),11.7%
CCOCC(=O)Nc1cc(-c2cccc(F)c2F)n[nH]1,-10.17%
Cc1nc(CCCNC(=O)Nc2cc(F)cc(F)c2)n[nH]1,16.21%
NC(=O)Cn1cc(NC(=O)N2CCCC(O)C2)cn1 (configuration not stated),-26.22%
c1ccc(CCN2CCN(C3CCOC4(CCOCC4)C3)CC2)cc1 (configuration not stated),-5.361%
CS(=O)(=O)N1CC2(CCCN(C3COC3)C2)Cc2ccccc21 (configuration not stated),-18.25%
CS(=O)(=O)c1ccc(CNCC2CCN(CCO)CC2)cc1,-4.373%
O=C(CCCc1ccccn1)N1CCCC1c1noc(C2CC2)n1 (configuration not stated),-2.939%
Cc1ccc(CN(C)Cc2nc3c(cnn3C)c(=O)[nH]2)c(C)c1,-9.533%
COCCO[C@H]1CCN(C(=O)c2cc(C)on2)[C@H]1Cc1ccccc1,4.322%
O=S(=O)(NCCn1cc(C2CCCNC2)nn1)c1ccc(Cl)cc1 (configuration not stated),-2.759%
CN(CCCOc1ccc(F)cc1)S(=O)(=O)c1cnn(C)c1,7.986%
Fc1cccc(F)c1Cn1c(C2CCNCC2)cc2cccnc21,-18.36%
NC(=O)COc1cccc(C(=O)Nc2cnc3n2CCCC3)c1,5%
O=C(NC[C@H]1OC[C@@H](NC2COC2)[C@@H]1O)c1ccccc1,-1.232%
OC(COCc1cccs1)Cn1cc(-n2cccc2)cn1 (configuration not stated),-8.082%
CN(C)c1ccc(NC(=O)c2ccnn2C)nc1,0.747%
Cn1cnnc1CCC(=O)N1CCCC(OCc2cccnc2)C1 (configuration not stated),-30.19%
CC(Cn1cccn1)NCc1ccc(Cl)s1 (configuration not stated),-0.8168%
Cc1ncc(C)c(N2Cc3cnn(Cc4ccc(F)cc4)c3C2)n1,7.225%
COCCNC(=O)c1cc(-c2cc[nH]n2)n2ccccc12,-510.5%
O=C(NC1CCC1)c1cccc(S(=O)(=O)NCc2nc(C3CC3)no2)c1,-0.8711%
Cc1cc(C[C@@H]2CCC[C@H]2NCc2ccccc2C)on1,-17.26%
COc1cnc(N2C[C@H](CO)C[C@H](CN3CCOCC3)C2)nc1,-11.51%
CCN(CC(=O)Nc1c(C)n[nH]c1C)CC(O)c1ccc(C)cc1 (configuration not stated),-8.499%
C=Cn1ncc(CN2C[C@@H]3CCCN3C[C@@H]2Cc2ccccc2)c1C,-2.955%
CC(=O)N1CCN(C(=O)c2c(Cl)c3ccccc3n2C)CC1,-3.107%
CCOc1cccc(NC(=O)c2cnc(C)cn2)n1,-0.555%
Cc1nnsc1C(=O)N1C[C@H]2CC[C@@H]1CN(c1cnccn1)C2,-2.786%
Cc1cc(N2CCC(c3ncc[nH]3)CC2)c2ccccc2n1,-3.124%
Cc1cc(C)n(CC2CN(Cc3nc(-c4ccoc4)no3)CCO2)n1 (configuration not stated),11.69%
Cc1nc[nH]c1-c1nccn1CCN(C)S(C)(=O)=O,-12.19%
COC(=O)CC(c1cccs1)c1oc(C)cc(=O)c1O (configuration not stated),-6.307%
CC(Cn1cccn1)Nc1cnc2ccccc2n1 (configuration not stated),-260.7%
Cc1cn(CC(=O)NC2CCC(C(=O)O)CC2)c2ccccc12 (configuration not stated),-4.9%
CC1Cc2ccccc2N1C(=O)Cn1nc(-c2cccs2)cc(N)c1=O (configuration not stated),-6.477%

12 of the entries, repeated:

Compound,Percent Effect
COc1ncc(CN2CCC3(CCCN(CC4CCC4)C3)C2)cn1 (configuration not stated),-10.35%
CCOc1cccc(NC(=O)c2cnc(C)cn2)n1,-0.555%
CCn1cc(CN2CCCN(C(=O)c3cc(C)no3)CC2)cn1,-24.94%
CC(=O)NCCC1CCCCN1S(=O)(=O)c1ccc2ccccc2c1 (configuration not stated),-7.693%
Cc1nc[nH]c1-c1nccn1CCN(C)S(C)(=O)=O,-12.19%
CC(Cn1cccn1)Nc1cnc2ccccc2n1 (configuration not stated),-260.7%
Fc1cccc(F)c1Cn1c(C2CCNCC2)cc2cccnc21,-18.36%
CCCn1cc(-c2cc(C(=O)N(C)C)c3ccc(C)cc3n2)cn1,-10.75%
COCC[C@]1(O)CCN(Cc2nc(C(C)C)cs2)C[C@H]1C,-2.816%
Cc1cc(C)n(CC2CN(Cc3nc(-c4ccoc4)no3)CCO2)n1 (configuration not stated),11.69%
CC1c2ncc(COCC3CC3)n2CCN1C(=O)c1ccnn1C (configuration not stated),3.008%
Cn1cnnc1CCC(=O)N1CCCC(OCc2cccnc2)C1 (configuration not stated),-30.19%